Measurements published in PubChem BioAssay (Tox21).
Where “and” joins values, the source holds several entries; their conditions need not be identical. Identical values can stand only once. The inconclusive results got no clear call from the source; some entries with a clear call stand among them for comparison. For some of these results: A potency beside an inconclusive call is a rough fit, not a confirmed value. Calls of active or inactive are those of the source. Unless noted, calls follow the shape of the full dose curve.

Protein sequences, listed by entry. Tags and fused reporters are not part of them. Lines headed by an entry give the natural chain unless they say otherwise; changes in a name come on top.
UniProt P28223, whole entry, looked up: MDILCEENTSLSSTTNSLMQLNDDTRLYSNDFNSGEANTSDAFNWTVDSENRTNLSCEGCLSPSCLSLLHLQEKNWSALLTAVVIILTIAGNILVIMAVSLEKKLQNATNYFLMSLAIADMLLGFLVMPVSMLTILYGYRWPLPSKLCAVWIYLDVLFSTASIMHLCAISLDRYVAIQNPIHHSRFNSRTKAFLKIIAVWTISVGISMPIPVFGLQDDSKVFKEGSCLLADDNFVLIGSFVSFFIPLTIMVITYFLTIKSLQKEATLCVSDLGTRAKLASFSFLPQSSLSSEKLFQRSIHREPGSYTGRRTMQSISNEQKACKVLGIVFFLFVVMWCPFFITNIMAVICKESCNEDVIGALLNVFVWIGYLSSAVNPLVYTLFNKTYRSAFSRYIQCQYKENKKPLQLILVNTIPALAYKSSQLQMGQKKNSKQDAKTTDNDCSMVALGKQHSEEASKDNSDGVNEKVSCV
UniProt P11229: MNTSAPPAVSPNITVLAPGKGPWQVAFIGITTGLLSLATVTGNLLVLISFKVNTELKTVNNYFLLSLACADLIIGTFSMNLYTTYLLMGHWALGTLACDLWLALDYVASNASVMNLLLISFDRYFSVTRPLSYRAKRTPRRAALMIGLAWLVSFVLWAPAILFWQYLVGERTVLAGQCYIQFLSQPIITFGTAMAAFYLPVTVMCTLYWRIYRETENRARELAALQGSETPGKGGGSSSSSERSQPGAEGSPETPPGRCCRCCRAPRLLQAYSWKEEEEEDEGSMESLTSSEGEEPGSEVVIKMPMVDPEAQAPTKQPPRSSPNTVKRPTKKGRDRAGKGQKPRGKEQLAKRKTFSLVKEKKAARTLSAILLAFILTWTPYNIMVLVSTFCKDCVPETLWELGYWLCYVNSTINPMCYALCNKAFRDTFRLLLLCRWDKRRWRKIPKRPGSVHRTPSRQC
UniProt P14416, whole entry, looked up: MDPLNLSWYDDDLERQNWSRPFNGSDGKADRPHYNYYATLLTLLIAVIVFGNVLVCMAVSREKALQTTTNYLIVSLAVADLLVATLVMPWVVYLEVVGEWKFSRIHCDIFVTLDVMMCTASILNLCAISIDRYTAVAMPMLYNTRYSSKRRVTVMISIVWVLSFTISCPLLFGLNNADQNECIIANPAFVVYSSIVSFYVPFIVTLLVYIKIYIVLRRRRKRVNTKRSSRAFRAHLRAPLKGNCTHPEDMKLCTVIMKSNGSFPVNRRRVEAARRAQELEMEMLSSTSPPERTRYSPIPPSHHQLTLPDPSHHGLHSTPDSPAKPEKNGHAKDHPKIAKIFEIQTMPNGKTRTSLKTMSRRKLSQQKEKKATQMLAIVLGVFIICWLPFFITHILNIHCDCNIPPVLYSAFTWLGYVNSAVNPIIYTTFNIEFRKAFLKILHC

Experiments:
[1] = Nuclear factor erythroid 2-related factor 2/antioxidant responsive element (Nrf2/ARE) small molecule agonists: luciferase reporter gene qHTS assay in human keratinocytes (AID 1919969); also: nearly all actives have a fitted effect of over 35% in size; also: potency is read from the fitted curve at half-maximal effect
[2] = p53 small molecule agonists, cell-based qHTS assay with human liver microsomes: qHTS cell viability counter screen (AID 1963579); also: potency is read from the fitted curve at half-maximal effect; nearly all actives have a fitted effect of over 45% in size
How it was run: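 HLM-supplemented (0.5 mg/mL final) and NADPH-supplemented (0.5 mg/mL final) p53RE-bla cultures, 4,000 cells per well, were dosed with compounds in DMSO for 16 h at 37 C; luminescent ATP detection (CellTiter-Glo, 30 min, room temperature) quantified surviving cells.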

[3] = p53 small molecule agonists, cell-based qHTS assay (AID 1963582; active = well fitted activation curve with a large enough effect in the signal ratio in the repeat runs, not every such curve was filed as active; inconclusive = weak or mixed curves; the % refers to the signal ratio; also: potency is read from the fitted curve at half-maximal effect; as to activation: % is scaled to controls: 0 for no effect and ±100 for the full control effect); details: HCT-116 p53RE-bla reporter, beta-lactamase FRET ratio, 16 h; activation: at 66 µM (top of the series) unless noted
How it was run: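 Reporter line: p53RE-bla. Pre-incubation 5 h, 37 C, 5% CO2; compound (DMSO, pin tool) 16 h, 37 C; B/G FRET substrate 2 h RT; fluorescence intensity read.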

[4] = target: 5-hydroxytryptamine receptor 2A (Homo sapiens) (UniProt P28223); experiment: 5-hydroxytryptamine receptor 2A (HTR2A) small molecule antagonists, cell-based qHTS assay (AID 1963586); also: potency is read from the fitted curve at half-maximal effect; nearly all actives have a fitted effect of over 45% in size
How it was run: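 Antagonist-mode intracellular calcium assay: DOI (4 nM) added after 5 min compound pre-incubation at room temperature to dye-loaded HTR2A-CHO cells. Fluorescence followed for 3 min, sampled every second.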

[5] = cAMP Responsive Elements (CRE) small molecule agonists, cell-based qHTS assay (AID 1963590); details: CRE-bla HEK293T, beta-lactamase FRET ratio, 3 h; activation: at 92.4 µM (top of the series) unless noted; also: potency is read from the fitted curve at half-maximal effect
How it was run: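 HEK 293T CRE-bla, 2,000 cells/well, 18 h preincubation 37 C/5% CO2; cpds (DMSO) pinned, 3 h; LiveBLAzer B/G FRET substrate, 2 h RT.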

[6] = target: Beta-2 adrenergic receptor (Homo sapiens) (UniProt P07550); experiment: Adrenergic beta2 receptor (ADRB2) small molecule agonists, cell-based qHTS assay (AID 1963593); details: CHO-ADRB2 cells, cAMP HTRF, 30 min; activation: at 92.4 µM (top of the series) unless noted; also: potency is read from the fitted curve at half-maximal effect;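 as to activation: CHO cells stably overexpressing human ADRB2; % is scaled to controls: 0 for no effect and ±100 for the full control effect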
How it was run: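 CHO cells stably over-expressing ADRB2 were plated overnight at 37C, then dosed with compounds plus a stimulation mix containing 100uM IBMX and 25uM Ro-20-1724 for 0.5hr at room temperature. cAMP was measured by HTRF competition, 1hr.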

[7] = p53 small molecule agonists, cell-based qHTS assay: qHTS cell viability counter screen (AID 1963581); also: nearly all actives have a fitted effect of over 45% in size; also: potency is read from the fitted curve at half-maximal effect
How it was run: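 HCT-116 p53RE-bla cells, 4,000/well, plated 5 h before compound pin transfer; 16 h at 37 C; bla substrate 2 h RT; then CellTiter-Glo, 30 min RT, luminescence.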

[8] = cAMP Responsive Elements (CRE) small molecule antagonists, cell-based qHTS assay (AID 1963591; active = well fitted inhibition curve with a large enough effect in the signal ratio in the repeat runs, not every such curve was filed as active; inconclusive = weak or mixed curves, or effect the other way; the % refers to the signal ratio; also: potency is read from the fitted curve at half-maximal effect; as to activity change, negative = inhibition: % is scaled to controls: 0 for no effect and ±100 for the full control effect); details: CRE-bla HEK293T, beta-lactamase FRET ratio; activity change, negative = inhibition: at 92.4 µM (top of the series) unless noted
How it was run: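 Beta-lactamase reporter read by FRET substrate (LiveBLAzer B/G) after 2 h at room temperature. CRE-bla HEK293T cells had received compound plus 0.25 uM (final) NKH477 for 3 h at 37 °C.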

[9] = target: Muscarinic acetylcholine receptor M1 (Homo sapiens) (UniProt P11229); experiment: Cholinergic receptor muscarinic 1 (CHRM1) small molecule antagonists, cell-based qHTS assay (AID 1963588); also: nearly all actives have a fitted effect of over 40% in size; also: potency is read from the fitted curve at half-maximal effect
How it was run: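 CHRM1-CHO calcium-flux assay, antagonist mode. Cells were seeded 18 h, dye-loaded 1 h at 37 C and given compound for 5 min at RT, then acetylcholine was added at 50nM. FDSS fluorescence was read 3 min; 15 concentrations, three runs.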

[10] = target: Muscarinic acetylcholine receptor M1 (Homo sapiens) (UniProt P11229); experiment: Cholinergic receptor muscarinic 1 (CHRM1) small molecule agonists, cell-based qHTS assay (AID 1963589); details: CHRM1-CHO cells, agonist mode, calcium flux fluorescence; activation: at 76.8 µM (top of the series); also: potency is read from the fitted curve at half-maximal effect; nearly all actives have a fitted effect of over 35% in size
How it was run: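 Human M1 in stable CHO line; 18 h plating, 1 h dye load 37 C; cpd added (agonist mode); Ca2+ fluorescence kinetic read, 1 s intervals; 15 conc, 3 runs.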

[11] = target: Beta-2 adrenergic receptor (Homo sapiens) (UniProt P07550); experiment: Adrenergic beta2 receptor (ADRB2) small molecule antagonists, cell-based qHTS assay (AID 1963592); details: CHO-ADRB2 cells, isoproterenol-stimulated cAMP HTRF ratio, 0.5 h; activity change, negative = inhibition: at 92.4 µM (top of the series) unless noted; also: nearly all actives have a fitted effect of over 50% in size; also: potency is read from the fitted curve at half-maximal effect
How it was run: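 Cells (CHO, stable ADRB2 overexpression) incubated 18-20hr at 37C; compounds added from DMSO; agonist mix (1nM isoproterenol, 100uM IBMX, 25uM Ro-20-1724) added; 0.5hr RT; d2-cAMP and anti-cAMP-cryptate added; 1hr RT; 665/615 nm read.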

[12] = target: D(2) dopamine receptor (Homo sapiens) (UniProt P14416); experiment: Dopamine D2 receptor (DRD2) small molecule agonists, cell-based qHTS assay (AID 1963594); details: HEK293-DRD2 cAMP HTRF, agonist mode, 30 min; activation: at 92.4 µM (top of the series) unless noted; also: % is scaled to controls: 0 for no effect and ±100 for the full control effect; nearly all actives have a fitted effect of over 35% in size
How it was run: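 HEK293 cells stably expressing human DRD2, pre-treated with PDE inhibitor Ro20-1724 (0.1 mM final) and compound 10 min at room temperature, then stimulated with NKH477 (200nM […]) for 30 min. cAMP read by HTRF (665/620 nm).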

[13] = target: 5-hydroxytryptamine receptor 2A (Homo sapiens) (UniProt P28223); experiment: 5-hydroxytryptamine receptor 2A (HTR2A) small molecule agonists, cell-based qHTS assay (AID 1963587); details: HTR2A-CHO cells, calcium flux fluorescence, agonist mode; activation: at 76.8 µM (top of the series); also: potency is read from the fitted curve at half-maximal effect; nearly all actives have a fitted effect of over 30% in size
How it was run: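 CHO cells stably expressing human HTR2A, plated 18 h, loaded with calcium dye 1 h at 37 C. Agonist mode: compounds added and intracellular calcium fluorescence recorded kinetically for 2 min at 1 sec intervals.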

[14] = target: D(2) dopamine receptor (Homo sapiens) (UniProt P14416); experiment: Dopamine D2 receptor (DRD2) small molecule antagonists, cell-based qHTS assay (AID 1963595; active = well fitted inhibition curve with a large enough effect in the signal ratio in the repeat runs, with a control signal flat; inconclusive = weak or mixed curves, or effect the other way; the % refers to the signal ratio; also: % is scaled to controls: 0 for no effect and ±100 for the full control effect); details: HEK293-DRD2 cAMP HTRF antagonist mode; activity change, negative = inhibition: at 92.4 µM (top of the series) unless noted
How it was run: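 Antagonist mode in DRD2-HEK293 cells: after compound addition with 0.1 mM Ro20-1724, cells received quinpirole (12 nM) and NKH477 (200 nM) for 30 min at room temperature; HTRF cAMP read after 1 h detection.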

CC(C)C(Nc1ccc(C(F)(F)F)cc1Cl)C(=O)OC(C#N)c1cccc(Oc2ccccc2)c1 (centres undefined)
Potency [1]: inconclusive: 69.1 µM [activator, single point]
Potency [2]: inconclusive: 46.1 µM [cytotoxic, single point]
Potency [3]: inconclusive: 13 µM [rising, partial curve, poor fit]
Potency [4]: inconclusive: 0.0151 µM [inhibitor, full curve, poor fit]
Potency [5]: inconclusive: 21.9 µM [rising, partial curve, poor fit]
Potency [6]: inconclusive: 6.16 µM [inhibitor, single point]

Nc1ccc(-c2ccccc2)cc1
Potency [1]: inconclusive: 28.1 µM [activator, partial curve]
Potency [7]: inconclusive: 18.7 µM [cytotoxic, single point]
Potency [5]: inconclusive: 48.6 µM [rising, partial curve]
activity change, negative = inhibition [8]: inconclusive: 10.4%

CC(C)OC(=O)Nc1cccc(Cl)c1
Potency [1]: inconclusive: 15.4 µM [activator, single point]
Potency [3]: inconclusive: 40.2 µM [rising, single point]
Potency [4]: inconclusive: 0.0059 µM [inhibitor, single point]
Potency [9]: inconclusive: 23.3 µM [inhibitor, full curve]
Potency [10]: inconclusive: 21.6 µM [rising, single point]
Potency [5]: inconclusive: 77 µM [rising, partial curve, poor fit]
Potency [8]: inconclusive: 68.6 µM [single point]
activity change, negative = inhibition [8]: inconclusive: -31.1%
activation [6]: inconclusive: 21.9%

CCCCNP(N)(N)=S
Potency [1]: inconclusive: 68.6 µM [activator, single point]
Potency [3]: inactive
Potency [9]: inactive
Potency [5]: inactive
activation [6]: inconclusive: -8.39%

COC(=O)Nc1nc2ccccc2[nH]1
Potency [1]: inconclusive: 68.6 µM [activator]
Potency [3]: active: 9.13 µM
Potency [9]: inactive
Potency [5]: inactive
activity change, negative = inhibition [8]: inconclusive: -16.1% and inconclusive: -21.3%

CC(Cc1ccc(OCC(=O)O)cc1)NCC(O)c1csc(C(F)(F)F)n1 (centres undefined)
Potency [1]: inactive
Potency [7]: inconclusive: 51.3 µM [rising, single point]
Potency [11]: inconclusive: 0.386 µM [inhibitor, full curve]
Potency [6]: inconclusive: 0.433 µM [inhibitor, full curve, poor fit]
activation [12]: inconclusive: 18.8%

C[As+](C)(C)CC(=O)[O-]
Potency [1]: inactive
Potency [3]: inconclusive: 51.3 µM [activator, partial curve, poor fit]
Potency [5]: inactive
Potency [11]: inactive
activation [6]: inconclusive: 1.7%

CCCC[N+]1(C)[C@@H]2CC(OC(=O)[C@H](CO)c3ccccc3)C[C@H]1[C@@H]1O[C@@H]12 (some centres undefined)
Potency [1]: inactive
Potency [7]: inactive
Potency [13]: inconclusive: 4.77 µM [activator, full curve, poor fit]
Potency [9]: active: 3.65 µM
Potency [6]: inactive

c1cncc([C@@H]2CCCCN2)c1
Potency [1]: inconclusive: 68.6 µM [activator, single point]
Potency [7]: inactive
Potency [3]: inconclusive: 25.7 µM [falling, single point]
activation [6]: inconclusive: -2.12%
Potency [12]: inactive

O=C(O)Cc1ccccc1
Potency [1]: inconclusive: 77.1 µM [activator, single point]
Potency [7]: inactive
Potency [6]: inconclusive: 7.71 µM [inhibitor, partial curve, poor fit]
activation [6]: inconclusive: 0.0382% [at 42.5 µM]
activity change, negative = inhibition [14]: inconclusive: -1.92% [at 42.5 µM]

Clc1ccc(CO/N=C(\Cn2ccnc2)c2ccc(Cl)cc2Cl)c(Cl)c1
Potency [1]: inconclusive: 13.3 µM [activator, single point]
Potency [7]: inconclusive: 22.3 µM [cytotoxic]
Potency [3]: inconclusive: 22.3 µM
Potency [8]: inconclusive: 29.8 µM [inhibitor]
Potency [11]: inconclusive: 33.5 µM [inhibitor, partial curve, poor fit]
activity change, negative = inhibition [14]: inconclusive: -35.8% [at 42.5 µM]

CCCCN(N=O)C(=N)N[N+](=O)[O-]
Potency [1]: inconclusive: 70.1 µM [activator, single point]
Potency [3]: active: 37.1 µM
Potency [5]: inconclusive: 70.1 µM [rising, partial curve, poor fit]
activation [6]: inconclusive: 5.41%
